Assay results taken from patent publication US20160053120A1, “AZO DYE USED FOR A COLOR FILTER OF A LCD” (DOW GLOBAL TECHNOLOGIES LLC, priority 2013, published 2016).

test: Transmittance of polymer film in visible light range; format: physicochemical; conditions: 0.9 micron film on glass plate, 380-780 nm, based on glass plate coated by acrylic resin only
Method: 0.05 g of mixture of Dye 1 and Dye 2 (supplied from Yabang Co., Ltd, 97% purity), 1.6 g of cyclohexanone and 0.7 g of alkaline soluble acrylic resin (MIPHOTO RPR5200, supplied from Miwan Commercial Co., Ltd., 25-35% of solid content in methyl 3-methoxypropionate) were mixed and stirred for 5 minutes at room temperature. Then the solution was spin coated onto a glass plate (thickness: 1 mm, spinning rate: 400 rpm, time: 18 seconds) using KW-4A type spin coater made by Kunshan Lidian JingmiJixie Co., Ltd. The wet film was inserted in an oven and heated at 80° C. for 30 minutes, then at 150° C. for 15 minutes. Film thickness, transmittance and chromaticity coordinates of the obtained film were measured as disclosed below. Film thickness of the film was 0.9 micron, transmittance of the film was 97.7% based on glass plate coated by acrylic resin only. Chromaticity coordinates measured by UltraScan Pro (Hunterlab) colorimeter was, x=0.4093, y=0.2695 and Y=31.6.
The transmission peak of the color film in visible light range (wavelength: 380 nm˜780 nm) on glass sheet subtracted with the transmittance of glass sheet is employed to indicate the transmittance. The visible transmission spectrum is recorded by UltraScan Pro (Hunterlab) colorimeter.

SMILES	Transmittance (%)
Cc1ccccc1/N=N/c1ccc(/N=N/c2c(O)ccc3ccccc23)c(C)c1 [Example 3, C.I. solvent red 24]	97.3%
CC1=NN(c2ccccc2)C(=O)C1/N=N/c1ccccc1 (stereo not drawn) [Example 2, C.I. solvent yellow 16]	98.1%
Oc1ccc2ccccc2c1/N=N/c1ccccc1 [Example 4, C.I. solvent yellow 14]	97.2%
